Results published in PubChem BioAssay AID1381 (University of Pittsburgh Molecular Library Screening Center, 2008).
The other results are listed elsewhere or left out.

Experiment: inhibitors of GR-EGFP nuclear translocation, primary screen, dynein cargo transport inhibitor project, imaging, high-content, 3617.4 mouse cells (AID 1381)
Settings: stimulated with dexamethasone, 1 µM
[1] = measured here: cell count per field, at 20 µM
[2] = measured here: cytoplasmic GR-EGFP intensity, at 20 µM, stronger effect = higher value
[3] = measured here: nuclear GR-EGFP intensity, at 20 µM, stronger effect = lower value
[4] = measured here: cell count per field, at 50 µM
[5] = measured here: cytoplasmic GR-EGFP intensity, at 50 µM, stronger effect = higher value
[6] = measured here: nuclear GR-EGFP intensity, at 50 µM, stronger effect = lower value

Molecule `O=P1(Nc2ncccn2)COc2ccccc2OC1` has a z-score [1] of 0.636, a z-score [2] of -0.37 and a z-score [3] of -0.791.

`CN1CCCCC1COC(=O)C1(O)c2ccccc2CCc2ccccc21` (stereo unspecified) gave a z-score [1] of -0.739, a z-score [2] of -0.178 and a z-score [3] of 0.356.

For `COc1ccccc1OP(C)(=O)Nc1c(C)cccc1C` (stereo unspecified), the z-score [4] was -0.613, the z-score [5] was -0.131 and the z-score [6] was -1.15.

`Nc1cccc([As](=O)(O)c2ccccc2)c1` gave a z-score [1] of 0.587, a z-score [2] of -0.249 and a z-score [3] of -0.345.

With `CP(=O)(Nc1ccc(SC(F)(F)F)cc1)Oc1ccccc1` (stereo unspecified) the z-score [1] was 0.403, the z-score [2] was -0.31 and the z-score [3] was -0.674.

`CCCOc1ccc(NP(C)(=O)Oc2ccc(Cl)cc2)cc1` (stereo unspecified) showed a z-score [1] of -1.76, a z-score [2] of 0.257 and a z-score [3] of 1.62.

`O=P1(Nc2ccc(Br)cn2)COc2ccccc2OC1` showed a z-score [1] of 0.95, a z-score [2] of -0.158 and a z-score [3] of -0.541.

In the case of `Cc1ccc(OCC(=O)OC2CN3CCC2CC3)cc1` (stereo unspecified), the z-score [4] is reported as 0.651, the z-score [5] is reported as -0.281 and the z-score [6] is reported as 0.000327.

With `O=[As](O)(c1cccs1)c1cccs1` the z-score [1] was -0.0741, the z-score [2] was -0.75 and the z-score [3] was -0.321.

`Cc1nn(-c2ccccc2)c2c1P(=O)(N1CCOCC1)N(C)C(c1ccccc1)=N2` (stereo unspecified) showed a z-score [4] of 0.66, a z-score [5] of -0.253 and a z-score [6] of 0.115.

`CC1CCC(C(C)C)C(OP(=O)(Nc2ccccn2)c2ccccc2)C1` (stereo unspecified) showed a z-score [1] of 1.15, a z-score [2] of -0.336 and a z-score [3] of -0.865.

For `COc1cc(C2NCCC3(OCCO3)C2(C)C)cc(OC)c1OC.O=[N+]([O-])c1cc([N+](=O)[O-])c(O)c([N+](=O)[O-])c1` (stereo unspecified), the z-score [1] was -2.2, the z-score [2] was -0.0404 and the z-score [3] was 1.16.

Molecule `O=[N+]([O-])c1cc([N+](=O)[O-])c(Nc2nnnn2CCO)c([N+](=O)[O-])c1` has a z-score [1] of -1.3, a z-score [2] of -0.251 and a z-score [3] of 0.95.

Work on `CN(C)C1(CNC(=O)c2ccc(S(C)(=O)=O)cc2)CCCCC1` yielded a z-score [1] of -0.933, a z-score [2] of -0.198 and a z-score [3] of 0.558.

Work on `CCOC(=O)C(CC)C1=NC(C)(C)Cc2ccccc21.O=[N+]([O-])c1cc([N+](=O)[O-])c(O)c([N+](=O)[O-])c1` (stereo unspecified) yielded a z-score [1] of -2.31, a z-score [2] of -0.178 and a z-score [3] of 0.295.

In the case of `O=C(/C=C/c1ccccc1)OC1CN2CCC1CC2` (stereo unspecified), the z-score [1] is reported as 0.443, the z-score [2] is reported as -0.289 and the z-score [3] is reported as -0.104.

`CC(C)/C=N\N=C(\N)N[N+](=O)[O-]` gave a z-score [1] of 0.751, a z-score [2] of -0.322 and a z-score [3] of -0.241.

`O=[As](O)(c1ccccc1Br)c1ccccc1Br` showed a z-score [1] of 0.892, a z-score [2] of -0.268 and a z-score [3] of -0.138.

In the case of `CC1(CBr)Cn2c(nc3ccccc3c2=O)S1` (stereo unspecified), the z-score [4] is reported as 1.48, the z-score [5] is reported as -0.268 and the z-score [6] is reported as -0.966.

Molecule `Cc1nc2ccc3ccccc3c2s1.O=[N+]([O-])c1cc([N+](=O)[O-])c(O)c([N+](=O)[O-])c1` has a z-score [1] of 0.568, a z-score [2] of -0.213 and a z-score [3] of -0.0763.

Molecule `O=P1(Nc2ccccn2)COc2ccccc2OC1` has a z-score [1] of -0.264, a z-score [2] of -0.221 and a z-score [3] of 0.124.

For `O=[N+]([O-])c1cc([N+](=O)[O-])c(-n2nnc3ccccc32)c([N+](=O)[O-])c1`, the z-score [1] was 0.0302, the z-score [2] was 0.826 and the z-score [3] was -1.95.

Work on `CCOP(=O)(Nc1ccc(C)cn1)OCC` yielded a z-score [1] of -0.176, a z-score [2] of -0.278 and a z-score [3] of 0.291.

`Clc1n[nH]nc1-c1nn[nH][15n]1` showed a z-score [1] of 0.114, a z-score [2] of -0.186 and a z-score [3] of -0.0217.

With `CC(C)(C)C(=O)NC(Sc1ncccn1)C(Cl)(Cl)Cl` (stereo unspecified) the z-score [1] was -2.73, the z-score [2] was -0.0268 and the z-score [3] was 0.961.

Work on `CP(=O)(Nc1cccc(Br)c1)Oc1ccccc1` (stereo unspecified) yielded a z-score [1] of -0.158, a z-score [2] of -0.329 and a z-score [3] of 0.164.

In the case of `Cc1cc(C)cc(OP(C)(=O)Nc2ccccn2)c1` (stereo unspecified), the z-score [4] is reported as 0.464, the z-score [5] is reported as -0.247 and the z-score [6] is reported as -0.233.
